Results published in paper PMC11996864, “A small-molecule inhibitor of BCL10-MALT1 interaction abrogates progression of diffuse large B cell lymphoma” (The Journal of Clinical Investigation, 2025).
No constants are given. Whether binding was seen depends on the method and setting. In cells and extracts the contact can be indirect. A result given as binding can be weak or reduced; the word gives no strength. Sequences can lack the tags named with a protein.

Target: T1, Myc-tagged BCL10 (UniProt O95999)
T1 sequence: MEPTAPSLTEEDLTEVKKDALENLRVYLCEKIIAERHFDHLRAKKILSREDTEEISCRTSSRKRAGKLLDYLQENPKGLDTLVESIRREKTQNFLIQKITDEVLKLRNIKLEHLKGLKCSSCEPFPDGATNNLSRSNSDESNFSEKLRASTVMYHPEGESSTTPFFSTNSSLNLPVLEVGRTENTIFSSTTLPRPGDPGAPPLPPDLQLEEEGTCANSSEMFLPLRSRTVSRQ
Assay: co-IP; HA-tagged MALT1 proteins or fragments with Myc-tagged BCL10 (or Myc-tagged RICK, MAVS), expressed in transiently transfected 293T cells

| binding | Substance |
| --- | --- |
| binds | HA-tagged MALT1(DD+Ig1-2) (domain or fragment) |
| binds | HA-tagged MALT1(Ig1-2+CTD) (domain or fragment) |
